In PubChem BioAssay AID2517 (National Center for Advancing Translational Sciences (NCATS), 2010):
Out of some 350,000 compounds screened, about 1,200 (0.34%) were called active. Inconclusive means that the source gave no clear call. Such entries were picked first, then a sample of the others. Calls come from the whole dose curve; as a rule, active = well fitted inhibition curve with a large enough effect; inconclusive = small, poorly fitted or top-dose-only effect; inactive = no such curve, though single readings can be large or run the other way. Potencies beside an inconclusive call are fits to weak or partial responses and may not hold up.

By UniProt entry, the sequences of proteins in these tests, tags left out.
UniProt P27695, whole entry, looked up: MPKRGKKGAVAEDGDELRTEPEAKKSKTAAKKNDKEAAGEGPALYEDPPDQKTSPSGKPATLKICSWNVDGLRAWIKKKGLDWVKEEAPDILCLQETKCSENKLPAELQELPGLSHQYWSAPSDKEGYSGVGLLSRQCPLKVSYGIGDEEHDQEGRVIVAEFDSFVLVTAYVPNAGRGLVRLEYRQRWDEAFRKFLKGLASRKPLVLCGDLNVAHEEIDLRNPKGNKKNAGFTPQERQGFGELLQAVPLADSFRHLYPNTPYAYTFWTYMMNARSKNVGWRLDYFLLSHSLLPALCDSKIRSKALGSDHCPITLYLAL

The molecules below were run against DNA repair nuclease/redox regulator APEX1 (Homo sapiens) (UniProt P27695) (assay: qHTS Assay for Inhibitors of the Human Apurinic/apyrimidinic Endonuclease 1 (APE1)). Conditions: recombinant APE1, TAMRA/BHQ-2 abasic DNA cleavage fluorescence; activity change, negative = inhibition: at 65.8 µM (top of the series).
Outline: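 Step 1: APE1 (0.75 nM) with compound, 15 min RT. Step 2: add 50 nM fluorophore/quencher THF duplex. Step 3: three fluorescence reads 60 s apart (525/598 nm); read 3 minus read 1 = reaction progress.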
Note: nearly all actives have a fitted effect of over 55% in size.
Potency is the fitted concentration of half-maximal effect.
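Throughout, for activity change, negative = inhibition: plate controls were vehicle for no effect and reference inhibitor for full effect.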

| SMILES | activity change, negative = inhibition | Potency |
| --- | --- | --- |
| CNC(=O)COC(=O)c1ccc(Cl)c(S(=O)(=O)N2CCCC2)c1 | inactive: -16.4% |  |
| CCn1c(SCC(=O)c2ccc(O)c(O)c2)nnc1-c1ccc(C)cc1 |  | inconclusive: 20 µM [inhibitor, partial curve] |
| COc1cc(C=C2C(=O)c3ccccc3C2=O)cc(OC)c1OC | inactive: -1.18% |  |
| CNc1ccc(Br)cc(C(=O)/C=C/c2ccc(OC)cc2)c1=O |  | inconclusive: 31.6 µM [inhibitor, single point] |
| COc1ccc(NS(=O)(=O)c2ccc(Oc3ncccn3)cc2)cc1 |  | inconclusive: 22.4 µM [inhibitor, single point] |
| [O][C@H]1[C@@H](O)[C@@H](CO)O[C@@H](O[C@@H]2[C@@H]3OC[C@H]2O[C@H](O[C@@H]2[C@@H](O)[C@H](C[C@@H]4[C@@H]5OC[C@H]4O[CH][C@@H]5O)O[C@H](CO)[C@@H]2OS(=O)(=O)O)[C@@H]3OS(=O)(=O)O)[C@@H]1O |  | active: 10 µM |
| CCN(CC)C(=O)CCS(=O)(=O)c1cccc2nonc12 |  | inconclusive: 0.0251 µM [inhibitor, full curve, poor fit] |
| O=c1cc(-c2ccc(O)cc2)oc2c(C3OCC(O)C(O)C3O)c(O)c(C3OC(CO)C(O)C(O)C3O)c(O)c12 (configuration not stated) |  | active: 20 µM |
| O=C1c2ccc(Oc3cccc([N+](=O)[O-])c3)cc2C(=O)N1c1ccccn1 |  | inconclusive: 1.12 µM [inhibitor, full curve] |
| Cc1nc(NC2CCCCC2)c2nc(-c3ccccc3)n(CCCN3CCCCC3C)c2n1 (configuration not stated) | inactive: 0.318% |  |
| N#Cc1nc(COc2ccccc2)oc1N1CCCC1 |  | inconclusive: 17.8 µM [inhibitor, partial curve, poor fit] |
| CO/C([O-])=N/c1c[n+](-c2ccc(Cl)cc2)no1 |  | inconclusive: 3.98 µM [inhibitor, single point] |
| CCC(CC)C(=O)Nc1ccc(Sc2ccc([N+](=O)[O-])cc2)cc1 |  | inconclusive: 44.7 µM [inhibitor, single point] |
| O=C(Nc1ccc(Cl)c(Cl)c1)Oc1ccc(NC(=O)c2ccco2)cc1 | inactive: 12.2% |  |
| Cc1ccc(-c2csc(NC(=O)c3ccc(-c4ccccc4)cc3)n2)o1 | inactive: -2.21% |  |
| CC(C)(C)OC(=O)NCCCC1=CC2=CC(=O)C(C)(OC(=O)c3ccco3)C(=O)C2=CO1 (configuration not stated) |  | inconclusive: 10 µM [inhibitor, partial curve] |
| Cc1ccc(-c2csc3ncnc(OCC(=O)NC(=O)NCc4ccco4)c23)cc1 |  | inconclusive: 39.8 µM [inhibitor, single point] |
| O=C(COC(=O)Cc1ccc(F)cc1)NCc1ccco1 |  | inconclusive: 25.1 µM [inhibitor, partial curve] |
| CCOP(=O)(OCC)c1nc(-c2ccc(OC)cc2)oc1N1CCOCC1 |  | inconclusive: 10 µM [inhibitor, single point] |
| COc1ccc(/C=C/C(=O)c2cc(Br)ccc(=O)c2O)cc1 |  | inconclusive: 35.5 µM [inhibitor, partial curve, poor fit] |
| Cc1cc(/C=C2\SC(=S)NC2=O)cc(C)c1O | inactive: 1.25% |  |

3 entries from above, tab-delimited.
SMILES	activity change, negative = inhibition	Potency
N#Cc1nc(COc2ccccc2)oc1N1CCCC1		inconclusive: 17.8 µM [inhibitor, partial curve, poor fit]
CO/C([O-])=N/c1c[n+](-c2ccc(Cl)cc2)no1		inconclusive: 3.98 µM [inhibitor, single point]
CCC(CC)C(=O)Nc1ccc(Sc2ccc([N+](=O)[O-])cc2)cc1		inconclusive: 44.7 µM [inhibitor, single point]

(further entries)

| SMILES | activity change, negative = inhibition | Potency |
| --- | --- | --- |
| O=c1c2cn[nH]c2nc(SCc2cc(=O)n3cc(Br)ccc3n2)n1-c1ccc(Br)cc1 |  | inconclusive: 14.1 µM [inhibitor, partial curve, poor fit] |
| COc1ccc(NC(=O)CN2C(=O)S/C(=C/c3cccn3-c3ccc(C(=O)O)cc3)C2=O)cc1 |  | active: 1.68 µM |
| c1coc(-c2nc3c4c5c(sc4ncn3n2)CCCC5)c1 |  | inconclusive: 39.8 µM [inhibitor, single point] |
| CCNC(=O)CC1C(=O)N(c2ccccc2)C(=O)N1CCC(C)C (configuration not stated) |  | inconclusive: 0.199 µM [inhibitor, full curve, poor fit] |
| COc1ccc(NC(=O)CN(C)CC(=O)Nc2ccc(Cl)cc2[N+](=O)[O-])cc1 |  | inconclusive: 8.91 µM [inhibitor, single point] |
| Cc1c(C(=O)OCC(C)C)[nH]c2c1C(=O)CC(c1ccco1)C2 (configuration not stated) |  | inconclusive: 17.8 µM [inhibitor, partial curve] |
| COc1ccccc1N1CCN(C(=O)CN(c2cc(C)cc(C)c2)S(C)(=O)=O)CC1 |  | inconclusive: 7.94 µM [inhibitor, single point] |
| CC1CCc2c(sc(NC(=O)/C=C/c3cccs3)c2C(=O)O)C1 (configuration not stated) |  | active: 11.9 µM |
| Cc1ccc(-c2nnc(N)s2)cc1 |  | inconclusive: 0.398 µM [inhibitor, full curve, poor fit] |
| Cn1nc([N+](=O)[O-])nc1S(C)(=O)=O |  | inconclusive: 28.2 µM [inhibitor, partial curve] |
| CC1(C)C(=O)NC2=C1C(=O)C(=O)c1ccccc12 |  | inconclusive: 7.94 µM [inhibitor, full curve, poor fit] |
| COC(=O)c1ccc(C(NC(=O)OCc2ccccc2)/C(C)=C/[C@@H](C)C(=O)NCc2nn(-c3ccccc3)nc2C)cc1 (some centres not stated) |  | inconclusive: 44.7 µM [inhibitor, single point] |
| O=C1COc2cccnc2N1 |  | inconclusive: 3.55 µM [inhibitor, single point] |
| Cn1ccnc1Sc1ccccc1[N+](=O)[O-] |  | inconclusive: 35.5 µM [inhibitor, single point] |
| O=C(OCc1ccccc1F)c1ccc2c(c1)-c1ccccc1C2=O |  | inconclusive: 25.1 µM [inhibitor, single point] |
| Cc1c(Br)cccc1NC(=O)c1sccc1-n1cccc1 |  | inconclusive: 0.794 µM [inhibitor, full curve, poor fit] |
| CCCC1C2C(=O)N(c3ccccc3)C(=O)C2ON1c1ccccc1 (configuration not stated) |  | inconclusive: 3.16 µM [inhibitor, single point] |
| O=c1c(O)c(-c2ccc(O)cc2)oc2ccc(O)cc12 | inactive: -0.972% |  |
| N=C1C=CC(=C(c2ccc(N)cc2)c2ccc(N)cc2)C=C1 | inactive: -2.99% |  |
| Cc1ccn2c(/C=N/OCc3cccc(F)c3)c(-c3ccc(Cl)cc3)nc2c1 |  | inconclusive: 28.2 µM [inhibitor, single point] |
| Cn1cccc1Cc1nnc(SCC(=O)NCC2CCCO2)n1C (configuration not stated) |  | inconclusive: 15.8 µM [inhibitor, partial curve, poor fit] |
